Measured values as given in patent US9441237B2, “Auxin receptors” (THE GOVERNORS OF THE UNIVERSITY OF ALBERTA, priority 2010, dated 2016).

Assay: Endogenous IAA and 4-Cl-IAA content in developing pea seed tissues (HPLC, GC-MS-SIM isotope dilution)
Design: species or system Pisum sativum

| SMILES | IAA and 4-Cl-IAA content (cotyledon, 18 DAA) [ng gFw^−1] | IAA and 4-Cl-IAA content (embryo axis, 18 DAA) [ng gFw^−1] | IAA and 4-Cl-IAA content (embryo, 10 DAA) [ng gFw^−1] | IAA and 4-Cl-IAA content (embryo, 12 DAA) [ng gFw^−1] | IAA and 4-Cl-IAA content (embryo, 14 DAA) [ng gFw^−1] | IAA and 4-Cl-IAA content (embryo, 16 DAA) [ng gFw^−1] | IAA and 4-Cl-IAA content (embryo, 18 DAA) [ng gFw^−1] | IAA and 4-Cl-IAA content (liquid endosperm, 10 DAA) [ng/mL] | IAA and 4-Cl-IAA content (liquid endosperm, 12 DAA) [ng/mL] | IAA and 4-Cl-IAA content (seed coat, 10 DAA) [ng gFw^−1] | IAA and 4-Cl-IAA content (seed coat, 12 DAA) [ng gFw^−1] | IAA and 4-Cl-IAA content (seed coat, 14 DAA) [ng gFw^−1] | IAA and 4-Cl-IAA content (seed coat, 16 DAA) [ng gFw^−1] | IAA and 4-Cl-IAA content (seed coat, 18 DAA) [ng gFw^−1] |
| --- | --- | --- | --- | --- | --- | --- | --- | --- | --- | --- | --- | --- | --- | --- |
| O=C(O)Cc1c[nH]c2cccc(Cl)c12 [4-Cl-IAA, 4-chloroindole-3-acetic acid] | 84.18 ± 6.44 | 265.03 | 141.68 | 102.55 | 661.68 ± 261.71 | 653.97 | 137.7 ± 49.35 | 148.67 ± 33.38 | 238.95 | 840.99 | 486.27 | 128.41 ± 21.25 | 295.22 | 196.08 |
| O=C(O)Cc1c[nH]c2ccccc12 [IAA, indole-3-acetic acid] | 8.46 ± 1.06 | 71.20 | 86.22 | 28.55 ± 2.42 | 19.80 ± 1.83 | 36.35 ± 8.46 | 14.56 ± 2.36 | 89.35 ± 19.34 | 244.04 ± 11.04 | 54.95 ± 10.80 | 20.05 ± 1.34 | 8.47 ± 1.15 | 10.05 ± 1.96 | 5.71 ± 1.04 |
